Test results from PMC10805786.
No constants are given. Whether binding was seen depends on the method and setting. In cells and extracts the contact can be indirect. A yes stands for co-enrichment or nearness to the bait. Other partners may have been found.

Protein sequences, listed by entry. Tags and fused reporters are not part of them. Lines headed by an entry give the natural chain unless they say otherwise; changes in a name come on top.
UniProt P23368: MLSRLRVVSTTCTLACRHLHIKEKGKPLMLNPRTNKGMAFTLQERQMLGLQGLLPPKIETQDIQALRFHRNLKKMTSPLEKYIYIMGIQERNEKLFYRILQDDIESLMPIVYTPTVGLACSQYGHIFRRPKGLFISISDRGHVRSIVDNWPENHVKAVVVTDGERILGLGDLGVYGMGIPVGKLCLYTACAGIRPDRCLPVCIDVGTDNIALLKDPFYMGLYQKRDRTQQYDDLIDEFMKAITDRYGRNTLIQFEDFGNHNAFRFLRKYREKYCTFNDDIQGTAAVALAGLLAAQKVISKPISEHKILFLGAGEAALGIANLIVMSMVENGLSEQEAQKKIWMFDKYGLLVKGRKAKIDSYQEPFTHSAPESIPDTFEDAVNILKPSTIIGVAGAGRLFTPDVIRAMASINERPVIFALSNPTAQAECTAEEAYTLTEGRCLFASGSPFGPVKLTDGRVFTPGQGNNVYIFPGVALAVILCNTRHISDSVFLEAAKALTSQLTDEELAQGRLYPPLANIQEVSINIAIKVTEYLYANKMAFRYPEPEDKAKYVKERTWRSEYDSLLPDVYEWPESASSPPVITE
UniProt P11413: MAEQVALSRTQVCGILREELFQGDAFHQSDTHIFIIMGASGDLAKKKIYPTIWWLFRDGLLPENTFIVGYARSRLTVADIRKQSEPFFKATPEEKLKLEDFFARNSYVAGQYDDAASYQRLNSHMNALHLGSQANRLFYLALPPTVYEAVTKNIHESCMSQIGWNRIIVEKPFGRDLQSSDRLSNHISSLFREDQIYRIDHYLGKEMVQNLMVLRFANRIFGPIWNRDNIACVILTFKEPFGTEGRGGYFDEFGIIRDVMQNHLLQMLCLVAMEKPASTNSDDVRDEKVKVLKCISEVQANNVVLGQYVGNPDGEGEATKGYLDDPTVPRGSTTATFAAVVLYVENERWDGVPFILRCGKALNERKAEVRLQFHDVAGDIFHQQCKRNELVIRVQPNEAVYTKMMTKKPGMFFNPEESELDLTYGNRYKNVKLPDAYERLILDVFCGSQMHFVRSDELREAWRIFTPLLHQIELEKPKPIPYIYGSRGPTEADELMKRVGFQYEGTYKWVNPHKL
UniProt P06733: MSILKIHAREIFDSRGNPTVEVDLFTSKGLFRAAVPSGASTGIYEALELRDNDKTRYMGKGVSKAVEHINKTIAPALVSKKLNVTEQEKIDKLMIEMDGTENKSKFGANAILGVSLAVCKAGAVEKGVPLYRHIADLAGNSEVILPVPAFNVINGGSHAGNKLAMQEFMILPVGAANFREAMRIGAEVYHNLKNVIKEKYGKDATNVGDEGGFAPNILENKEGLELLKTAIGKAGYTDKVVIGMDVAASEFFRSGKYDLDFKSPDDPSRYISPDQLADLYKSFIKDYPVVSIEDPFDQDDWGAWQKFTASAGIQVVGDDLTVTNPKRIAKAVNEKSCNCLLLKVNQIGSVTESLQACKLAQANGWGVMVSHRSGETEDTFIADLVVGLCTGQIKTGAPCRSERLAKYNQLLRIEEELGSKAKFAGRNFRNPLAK
UniProt P04406: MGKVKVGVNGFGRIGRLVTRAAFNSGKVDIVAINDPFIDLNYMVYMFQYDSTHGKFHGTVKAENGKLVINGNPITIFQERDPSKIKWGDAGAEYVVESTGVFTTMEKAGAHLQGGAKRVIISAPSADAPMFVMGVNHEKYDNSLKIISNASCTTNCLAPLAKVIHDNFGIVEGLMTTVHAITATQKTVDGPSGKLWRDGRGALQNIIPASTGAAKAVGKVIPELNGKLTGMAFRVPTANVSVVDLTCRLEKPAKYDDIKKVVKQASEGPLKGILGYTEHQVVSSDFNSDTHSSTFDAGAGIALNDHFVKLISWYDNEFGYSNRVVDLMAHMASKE
UniProt P14618: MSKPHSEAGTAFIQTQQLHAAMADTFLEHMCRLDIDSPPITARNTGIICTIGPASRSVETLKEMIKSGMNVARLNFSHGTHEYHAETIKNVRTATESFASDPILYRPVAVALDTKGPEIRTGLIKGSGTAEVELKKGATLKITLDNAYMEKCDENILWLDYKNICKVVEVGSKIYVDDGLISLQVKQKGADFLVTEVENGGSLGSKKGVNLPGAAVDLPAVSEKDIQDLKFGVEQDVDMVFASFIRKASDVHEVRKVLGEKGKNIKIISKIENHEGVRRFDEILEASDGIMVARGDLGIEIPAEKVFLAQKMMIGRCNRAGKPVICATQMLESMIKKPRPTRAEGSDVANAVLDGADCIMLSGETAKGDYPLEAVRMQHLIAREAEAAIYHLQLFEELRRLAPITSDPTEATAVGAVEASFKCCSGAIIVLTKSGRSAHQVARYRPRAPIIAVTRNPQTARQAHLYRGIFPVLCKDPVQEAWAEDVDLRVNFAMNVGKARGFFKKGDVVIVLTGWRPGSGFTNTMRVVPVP

B1: ALDOA, endogenous in HEK293T (enzyme, UniProt P04075 1-364)
chain: MPYQYPALTPEQKKELSDIAHRIVAPGKGILAADESTGSIAKRLQSIGTENTEENRRFYRQLLLTADDRVNPCIGGVILFHETLYQKADDGRPFPQVIKSKGGVVGIKVDKGVVPLAGTNGETTTQGLDGLSERCAQYKKDGADFAKWRCVLKIGEHTPSALAIMENANVLARYASICQQNGIVPIVEPEILPDGDHDLKRCQYVTEKVLAAVYKALSDHHIYLEGTLLKPNMVTPGHACTQKFSHEEIAMATVTALRRTVPPAVTGITFLSGGQSEEEASINLNAINKCPLLKPWALTFSYGRALQASALKAWGGKKENLKAAQEEYVKRALANSLACQGKYTPSGQAGAAASESLFVSNHAY

Target: ME2flS9D-3'Flag (human) (UniProt P23368)
Experiment: affinity purification with mass spectrometry; HEK293T cells expressing ME2flS9D-3'Flag or vector control, anti-Flag M2 affinity gel, SDS-PAGE bands, LC-MS/MS (Orbitrap Elite)

Row | binding | Molecule
1 | binds | G6PD, endogenous in HEK293T (from UniProt P11413 1-515) (enzyme)
2 | binds | ENO1, endogenous in HEK293T (from UniProt P06733 1-434) (enzyme)
3 | binds | GAPDH, endogenous in HEK293T (from UniProt P04406 1-335) (enzyme)
4 | binds | PKM, endogenous in HEK293T (from UniProt P14618 1-531) (enzyme)

Row | Molecule | binding
5 | B1 | binds
